The list shows a part of the results.
Legend:
Test in all cases: log2 fold change, soluble protein after heating vs DMSO (PISA); higher = thermal stabilisation; K562 cells, 10 uM, 30 min; active = over 0.2 and 3.5 SD of the protein, either way, in both replicates (recomputed)
[1] = compound: CC[C@@H]1C(=O)N(C)c2cnc(Nc3ccc(C(=O)NC4CCN(C)CC4)cc3OC)nc2N1C1CCCC1
In short: (§1)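 Values are thermal stability changes relative to control samples and are taken from duplicates. They are stated as log2 fold changes. Before quantification by TMTpro 16plex LC-MS/MS with equalised channel sums, K562 cells at 2×10^6 cells/mL were treated with 10 μM compound for 30 min, heated in aliquots for 3 min across 48°C-58°C, pooled, extracted in PBS with 0.5% NP-40 at 4°C, and centrifuged at 21,000xg for 90 min to give the soluble supernatant.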

By UniProt entry, the sequences of proteins in these tests, tags left out. Where a name states a change or a piece, a line headed by the entry shows the natural chain unless it says otherwise.
UniProt P78346: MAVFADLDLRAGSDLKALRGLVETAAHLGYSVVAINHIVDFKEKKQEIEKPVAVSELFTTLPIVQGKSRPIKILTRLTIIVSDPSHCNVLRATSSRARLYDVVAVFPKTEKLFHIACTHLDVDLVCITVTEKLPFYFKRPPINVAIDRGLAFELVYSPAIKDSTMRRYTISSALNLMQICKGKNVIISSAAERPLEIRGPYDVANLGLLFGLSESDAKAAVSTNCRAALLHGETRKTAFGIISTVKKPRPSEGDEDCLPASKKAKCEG
UniProt P23443: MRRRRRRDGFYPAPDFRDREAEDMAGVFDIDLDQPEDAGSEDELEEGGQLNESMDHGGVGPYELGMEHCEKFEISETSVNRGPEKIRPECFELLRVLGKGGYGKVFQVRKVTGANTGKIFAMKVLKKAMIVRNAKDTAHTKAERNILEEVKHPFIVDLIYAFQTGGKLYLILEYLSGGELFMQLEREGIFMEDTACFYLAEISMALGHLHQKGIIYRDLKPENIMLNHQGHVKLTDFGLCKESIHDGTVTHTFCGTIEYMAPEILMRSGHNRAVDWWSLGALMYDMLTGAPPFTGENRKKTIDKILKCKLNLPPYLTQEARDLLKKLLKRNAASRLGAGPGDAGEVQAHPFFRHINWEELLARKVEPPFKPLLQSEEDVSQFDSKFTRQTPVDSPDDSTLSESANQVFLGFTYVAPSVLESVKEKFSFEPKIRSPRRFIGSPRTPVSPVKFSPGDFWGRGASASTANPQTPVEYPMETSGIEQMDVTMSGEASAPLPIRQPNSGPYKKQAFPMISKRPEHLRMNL
UniProt P49247: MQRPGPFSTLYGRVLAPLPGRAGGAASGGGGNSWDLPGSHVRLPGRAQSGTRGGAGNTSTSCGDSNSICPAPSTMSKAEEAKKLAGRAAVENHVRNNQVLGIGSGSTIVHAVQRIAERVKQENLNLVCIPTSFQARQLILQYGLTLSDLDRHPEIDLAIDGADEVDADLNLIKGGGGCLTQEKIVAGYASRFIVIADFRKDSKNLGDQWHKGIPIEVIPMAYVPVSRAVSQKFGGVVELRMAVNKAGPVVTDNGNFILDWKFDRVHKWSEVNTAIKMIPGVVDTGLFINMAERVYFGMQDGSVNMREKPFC
UniProt O43148, whole entry, looked up: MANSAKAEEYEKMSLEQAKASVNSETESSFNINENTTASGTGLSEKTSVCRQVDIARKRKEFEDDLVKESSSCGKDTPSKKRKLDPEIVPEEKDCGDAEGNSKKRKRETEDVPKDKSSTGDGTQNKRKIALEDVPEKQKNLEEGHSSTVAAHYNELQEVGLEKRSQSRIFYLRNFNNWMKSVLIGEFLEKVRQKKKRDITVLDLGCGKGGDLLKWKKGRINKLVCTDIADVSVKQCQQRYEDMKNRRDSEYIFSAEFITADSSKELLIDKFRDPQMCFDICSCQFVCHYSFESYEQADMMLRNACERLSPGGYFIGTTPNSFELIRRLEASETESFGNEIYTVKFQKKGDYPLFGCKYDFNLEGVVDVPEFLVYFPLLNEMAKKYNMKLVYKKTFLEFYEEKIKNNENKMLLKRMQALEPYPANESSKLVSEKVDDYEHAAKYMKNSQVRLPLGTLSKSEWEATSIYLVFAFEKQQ
UniProt Q9BWH6: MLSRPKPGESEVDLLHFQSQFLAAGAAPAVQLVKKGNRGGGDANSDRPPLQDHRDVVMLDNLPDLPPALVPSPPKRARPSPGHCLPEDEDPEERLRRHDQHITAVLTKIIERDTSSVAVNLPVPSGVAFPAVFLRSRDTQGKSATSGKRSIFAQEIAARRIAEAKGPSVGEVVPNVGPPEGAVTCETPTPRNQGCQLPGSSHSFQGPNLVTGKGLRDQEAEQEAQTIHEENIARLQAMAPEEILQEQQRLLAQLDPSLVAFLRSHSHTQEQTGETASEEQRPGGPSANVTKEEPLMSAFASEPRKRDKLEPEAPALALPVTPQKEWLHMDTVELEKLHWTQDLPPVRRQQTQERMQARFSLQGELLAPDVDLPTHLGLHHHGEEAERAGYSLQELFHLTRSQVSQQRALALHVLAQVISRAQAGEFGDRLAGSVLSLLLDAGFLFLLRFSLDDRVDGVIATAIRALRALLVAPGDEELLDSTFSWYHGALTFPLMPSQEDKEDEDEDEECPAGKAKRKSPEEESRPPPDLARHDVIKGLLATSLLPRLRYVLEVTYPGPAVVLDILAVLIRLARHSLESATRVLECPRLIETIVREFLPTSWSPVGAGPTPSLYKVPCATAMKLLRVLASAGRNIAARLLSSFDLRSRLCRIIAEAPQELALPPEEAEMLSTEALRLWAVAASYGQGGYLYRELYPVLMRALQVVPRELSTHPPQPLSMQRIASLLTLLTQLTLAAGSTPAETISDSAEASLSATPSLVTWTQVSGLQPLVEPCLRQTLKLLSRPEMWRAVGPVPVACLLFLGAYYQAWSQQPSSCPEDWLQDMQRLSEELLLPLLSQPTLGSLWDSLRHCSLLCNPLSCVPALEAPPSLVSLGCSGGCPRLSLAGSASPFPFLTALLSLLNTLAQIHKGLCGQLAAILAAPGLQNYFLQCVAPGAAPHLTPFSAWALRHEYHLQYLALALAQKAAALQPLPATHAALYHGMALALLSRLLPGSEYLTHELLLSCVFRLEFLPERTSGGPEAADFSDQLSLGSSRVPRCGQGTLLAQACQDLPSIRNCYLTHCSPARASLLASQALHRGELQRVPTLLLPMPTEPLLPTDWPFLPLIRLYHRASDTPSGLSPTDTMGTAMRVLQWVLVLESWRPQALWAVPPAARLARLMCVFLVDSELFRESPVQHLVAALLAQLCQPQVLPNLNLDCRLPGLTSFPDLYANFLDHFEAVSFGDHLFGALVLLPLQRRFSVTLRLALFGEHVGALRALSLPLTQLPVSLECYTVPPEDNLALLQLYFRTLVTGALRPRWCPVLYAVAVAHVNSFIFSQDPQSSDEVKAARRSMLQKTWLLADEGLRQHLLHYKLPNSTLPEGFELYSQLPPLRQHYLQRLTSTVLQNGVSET
UniProt P10155: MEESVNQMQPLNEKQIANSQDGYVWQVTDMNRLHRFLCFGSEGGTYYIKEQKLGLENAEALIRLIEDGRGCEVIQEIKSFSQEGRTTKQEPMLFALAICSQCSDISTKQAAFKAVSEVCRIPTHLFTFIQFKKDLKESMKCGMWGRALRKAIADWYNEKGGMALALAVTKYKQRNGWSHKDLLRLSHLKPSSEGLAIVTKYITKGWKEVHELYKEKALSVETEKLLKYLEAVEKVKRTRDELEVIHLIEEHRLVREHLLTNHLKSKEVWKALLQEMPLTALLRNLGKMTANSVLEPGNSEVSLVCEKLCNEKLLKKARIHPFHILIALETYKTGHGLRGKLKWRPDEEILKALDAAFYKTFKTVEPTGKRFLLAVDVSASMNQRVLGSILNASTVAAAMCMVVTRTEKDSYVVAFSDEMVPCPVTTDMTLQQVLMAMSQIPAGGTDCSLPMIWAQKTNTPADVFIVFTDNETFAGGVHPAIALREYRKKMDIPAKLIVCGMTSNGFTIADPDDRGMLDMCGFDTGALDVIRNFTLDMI
UniProt Q9BUL9: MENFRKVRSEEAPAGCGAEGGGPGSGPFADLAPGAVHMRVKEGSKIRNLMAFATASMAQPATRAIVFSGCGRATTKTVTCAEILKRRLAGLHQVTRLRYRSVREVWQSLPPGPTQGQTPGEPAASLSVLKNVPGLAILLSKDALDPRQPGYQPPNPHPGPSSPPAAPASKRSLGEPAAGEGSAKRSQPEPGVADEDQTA
UniProt P05386, whole entry, looked up: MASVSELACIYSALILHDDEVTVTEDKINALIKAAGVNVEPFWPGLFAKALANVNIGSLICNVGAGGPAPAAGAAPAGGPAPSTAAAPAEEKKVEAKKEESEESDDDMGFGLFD

volasertib = compound: CC[C@@H]1C(=O)N(C)c2cnc(Nc3ccc(C(=O)N[C@H]4CC[C@H](N5CCN(CC6CC6)CC5)CC4)cc3OC)nc2N1C(C)C [volasertib]
In short: as §1

[2] = compound: CC[C@H](C)N1C=C(C2=C(C=C(C=C21)C3=CN=C(C=C3)N4CCNCC4)C(=O)NCC5=C(C=C(NC5=O)C)C)C
In short: as §1

epoxomicin = compound: CC[C@H](C)[C@@H](C(=O)N[C@@H]([C@@H](C)O)C(=O)N[C@@H](CC(C)C)C(=O)[C@]1(CO1)C)NC(=O)[C@H]([C@@H](C)CC)N(C)C(=O)C [epoxomicin]
In short: as §1

[3] = compound: CCn1c(C(=O)N(C2CC2)C2CC2)cc2c3c(ncn3C)c(Nc3cc(C)n(C)n3)nc21
In short: as §1

[4] = compound: CCn1cc(-c2ccnc3[nH]c(-c4cccc(CN(C)C)c4)cc23)c(-c2ccc(NC(=O)N(C)C)cc2)n1
In short: as §1

[5] = compound: CN(C)CC(=O)Nc1ccc2[nH]c(=O)c3ccccc3c2c1
In short: as §1

rosiglitazone = compound: CN(CCOC1=CC=C(C=C1)C[C@H]2C(=O)NC(=O)S2)C3=CC=CC=N3 (racemic) [rosiglitazone]
In short: as §1

[6] = compound: CN1C2=C(C3=C1C(=O)N(N=C3)CC4=CC(=CC=C4)N)SC(=C2)S(=O)C
In short: as §1

[7] = compound: CN1CCC(CNc2ccc3ncc(-c4cccc(OC(F)(F)F)c4)n3n2)CC1
In short: as §1

Measured: log2 fold change

RPP30 isoform 2 (UniProt P78346)
inactive: [1] 0.103 | volasertib 0.126 | [2] -0.001 | epoxomicin -0.032 | [3] 0.009 | [4] -0.017 | [5] -0.099 | rosiglitazone -0.039 | [6] 0.064 | [7] 0.053

RPS24 isoform 4 (UniProt P62847)
inactive: [1] 0.202 | volasertib 0.421 | [2] 0.013 | epoxomicin -0.201 | [3] -0.004 | [4] 0.165 | [5] -0.1 | rosiglitazone -0.132 | [6] 0.226 | [7] 0.158

RPS15A (UniProt P62244)
inactive: [1] 0.15 | volasertib 0.473 | [2] 0.033 | epoxomicin -0.308 | [3] 0.007 | [4] 0.242 | [5] -0.1 | rosiglitazone -0.144 | [6] 0.236 | [7] 0.184

RPS29 (UniProt P62273)
inactive: [1] -0.064 | volasertib 0.388 | [2] -0.192 | epoxomicin -0.03 | [3] -0.03 | [4] 0.085 | [5] -0.074 | rosiglitazone -0.224 | [6] 0.17 | [7] 0.24

RPS6KB1 (UniProt P23443)
inactive: [1] -0.016 | volasertib -0.112 | [2] 0.028 | epoxomicin -0.019 | [3] 0.02 | [4] -0.075 | [5] -0.019 | rosiglitazone 0.083 | [6] -0.084 | [7] -0.139

RPIA (UniProt P49247)
inactive: [1] 0.027 | volasertib 0.076 | [2] -0.028 | epoxomicin 0.027 | [3] -0.005 | [4] 0.012 | [5] 0.001 | rosiglitazone 0.018 | [6] -0.053 | [7] -0.015

RPS27L (UniProt Q71UM5)
inactive: [1] 0.061 | volasertib 0.139 | [2] 0.067 | epoxomicin 0.024 | [3] 0.031 | [4] -0.083 | [5] -0.035 | rosiglitazone -0.029 | [6] 0.043 | [7] -0.009

RPS10 (UniProt P46783)
inactive: [1] 0.125 | volasertib 0.332 | [2] 0 | epoxomicin -0.087 | [3] 0.006 | [4] 0.08 | [5] -0.064 | rosiglitazone -0.065 | [6] 0.079 | [7] 0.12

RPS8 (UniProt P62241)
inactive: [1] 0.146 | volasertib 0.499 | [2] 0.011 | epoxomicin -0.316 | [3] 0.089 | [4] 0 | [5] -0.171 | rosiglitazone -0.105 | [6] 0.251 | [7] 0.221

RPL37A (UniProt P61513)
inactive: [1] 0.267 | volasertib 0.718 | [2] -0.009 | epoxomicin -0.493 | [3] -0.009 | [4] 0.168 | [5] -0.282 | rosiglitazone -0.4 | [6] 0.496 | [7] 0.368

RPL3 (UniProt P39023)
inactive: [1] 0.302 | volasertib 0.815 | [2] -0.006 | epoxomicin -0.745 | [3] 0.062 | [4] 0.273 | [5] -0.276 | rosiglitazone -0.349 | [6] 0.573 | [7] 0.414

RPL7 (UniProt P18124)
inactive: [1] 0.298 | volasertib 0.85 | [2] 0 | epoxomicin -0.726 | [3] 0.073 | [4] 0.389 | [5] -0.304 | rosiglitazone -0.343 | [6] 0.505 | [7] 0.443

RPL21 (UniProt P46778)
inactive: [1] 0.311 | volasertib 0.788 | [2] -0.002 | epoxomicin -0.732 | [3] 0.032 | [4] 0.363 | [5] -0.305 | rosiglitazone -0.262 | [6] 0.493 | [7] 0.4

RPL12 (UniProt P30050)
inactive: [1] 0.267 | volasertib 0.696 | [2] -0.061 | epoxomicin -0.627 | [3] 0.036 | [4] 0.3 | [5] -0.205 | rosiglitazone -0.343 | [6] 0.517 | [7] 0.444

RPL10 (UniProt P27635)
inactive: [1] 0.219 | volasertib 0.63 | [2] 0.013 | epoxomicin -0.317 | [3] 0.006 | [4] 0.174 | [5] -0.192 | rosiglitazone -0.229 | [6] 0.339 | [7] 0.273

Taken from the results shown (2 entries):
RPS8 (UniProt P62241)
inactive: [1] 0.146 | volasertib 0.499 | [2] 0.011 | epoxomicin -0.316 | [3] 0.089 | [4] 0 | [5] -0.171 | rosiglitazone -0.105 | [6] 0.251 | [7] 0.221

RPL37A (UniProt P61513)
inactive: [1] 0.267 | volasertib 0.718 | [2] -0.009 | epoxomicin -0.493 | [3] -0.009 | [4] 0.168 | [5] -0.282 | rosiglitazone -0.4 | [6] 0.496 | [7] 0.368

(further entries)

RPL18A (UniProt Q02543)
inactive: [1] 0.304 | volasertib 0.862 | [2] -0.002 | epoxomicin -0.705 | [3] 0.097 | [4] 0.359 | [5] -0.32 | rosiglitazone -0.332 | [6] 0.582 | [7] 0.409

RPS28 (UniProt P62857)
inactive: [1] -0.088 | volasertib 0.212 | [2] -0.048 | epoxomicin -0.019 | [3] 0.02 | [4] 0.131 | [5] -0.121 | rosiglitazone -0.088 | [6] 0.113 | [7] 0.077

RPL6 (UniProt Q02878)
inactive: [1] 0.297 | volasertib 0.846 | [2] 0 | epoxomicin -0.476 | [3] 0.095 | [4] 0.318 | [5] -0.265 | rosiglitazone -0.336 | [6] 0.538 | [7] 0.436

RNMT isoform 2 (UniProt O43148)
inactive: [1] 0.117 | volasertib 0.094 | [2] -0.03 | epoxomicin -0.001 | [3] -0.007 | [4] 0.028 | [5] -0.099 | rosiglitazone -0.018 | [6] 0.076 | [7] 0.095

RPLP0 (UniProt P05388)
inactive: [1] 0.299 | volasertib 0.756 | [2] -0.022 | epoxomicin -0.698 | [3] 0.083 | [4] 0.313 | [5] -0.259 | rosiglitazone -0.291 | [6] 0.508 | [7] 0.429

RPL19 (UniProt P84098)
inactive: [1] 0.205 | volasertib 0.506 | [2] -0.024 | epoxomicin -0.485 | [3] -0.004 | [4] 0.344 | [5] -0.179 | rosiglitazone -0.232 | [6] 0.307 | [7] 0.429

RPL26 (UniProt P61254)
inactive: [1] 0 | volasertib 0.519 | [2] 0.056 | epoxomicin -0.424 | [3] -0.044 | [4] -0.119 | [5] -0.116 | rosiglitazone -0.162 | [6] 0.419 | [7] 0.499

RPL9 (UniProt P32969)
inactive: [1] 0.256 | volasertib 0.624 | [2] 0.005 | epoxomicin -0.503 | [3] 0.001 | [4] 0.184 | [5] -0.233 | rosiglitazone -0.264 | [6] 0.446 | [7] 0.352

RPL29 (UniProt P47914)
inactive: [1] 0.107 | volasertib 0.526 | [2] -0.042 | epoxomicin -0.692 | [3] 0.076 | [4] 0.279 | [5] -0.187 | rosiglitazone -0.274 | [6] 0.408 | [7] 0.331

RPL30 (UniProt P62888)
inactive: [1] 0.31 | volasertib 0.764 | [2] -0.014 | epoxomicin -0.731 | [3] 0.034 | [4] 0.237 | [5] -0.291 | rosiglitazone -0.353 | [6] 0.429 | [7] 0.434

RPAP1 (UniProt Q9BWH6)
inactive: [1] -0.06 | volasertib -0.119 | [2] 0.05 | epoxomicin 0.007 | [3] -0.019 | [4] -0.071 | [5] 0.014 | rosiglitazone 0.007 | [6] -0.054 | [7] -0.127

RO60 (UniProt P10155)
inactive: [1] 0.03 | volasertib 0.057 | [2] -0.02 | epoxomicin -0.005 | [3] 0.001 | [4] 0.005 | [5] -0.034 | rosiglitazone -0.017 | [6] -0.061 | [7] -0.037

RPS7 (UniProt P62081)
inactive: [1] 0.176 | volasertib 0.435 | [2] 0.068 | epoxomicin -0.261 | [3] 0.036 | [4] 0.115 | [5] -0.122 | rosiglitazone -0.125 | [6] 0.223 | [7] 0.146

RPP25 (UniProt Q9BUL9)
inactive: [1] 0.05 | volasertib 0.129 | [2] -0.003 | epoxomicin -0.017 | [3] -0.011 | [4] 0.091 | [5] -0.047 | rosiglitazone 0.016 | [6] -0.048 | [7] -0.068

RPLP1 (UniProt P05386)
inactive: [1] 0.302 | volasertib 0.652 | [2] 0.026 | epoxomicin -0.193 | [3] 0.018 | [4] 0.433 | [5] -0.134 | rosiglitazone -0.24 | [6] 0.422 | [7] 0.596

Source: the supplement of paper PMC10849652
